# From patent US7625842B2, “1-arylpyrazole derivatives pesticidal agents” (Merial Limited, priority 2004, dated 2009)
# Some of these results come from one statement about several compounds together.
# System: Ctenocephalides felis
# Assay: Method A: screening method to test systemicity against Ctenocephalides felis (cat flea), artificial dog test with treated bovine blood
# Assay type: in vivo
# Settings: test concentration of 5 ppm or less; compound in bovine blood; assessment at 24 and 48 hours after application
row,SMILES,control of Ctenocephalides felis
1,CON=CCN(C)c1c(S(=O)(=O)C(F)(F)F)c(C#N)nn1-c1c(Cl)cc(C(F)(F)F)cc1Cl [Compound 1-1],at least 90%
2,"CCON=CCN(C)c1c(S(=O)(=O)C(F)(F)F)c(C#N)nn1-c1c(Cl)cc(C(F)(F)F)cc1Cl [Compound 1-2, 1-(2,6-Dichloro-4-trifluoromethylphenyl)-3-cyano-5-N-(2-ethoxyiminoethyl)-N-methylamino-4-trifluoromethylsulfonylpyrazole]",at least 90%
3,CN(CC=NOCc1ccccc1)c1c(S(=O)(=O)C(F)(F)F)c(C#N)nn1-c1c(Cl)cc(C(F)(F)F)cc1Cl [Compound 1-3],at least 90%
4,CN(CC=NOc1ccccc1)c1c(S(=O)(=O)C(F)(F)F)c(C#N)nn1-c1c(Cl)cc(C(F)(F)F)cc1Cl [Compound 1-4],at least 90%
5,CN(CC=NOC(C)(C)C)c1c(S(=O)(=O)C(F)(F)F)c(C#N)nn1-c1c(Cl)cc(C(F)(F)F)cc1Cl [Compound 1-5],at least 90%
6,CN(CCC=NOCc1ccccc1)c1c(S(=O)(=O)C(F)(F)F)c(C#N)nn1-c1c(Cl)cc(C(F)(F)F)cc1Cl [Compound 1-24],at least 90%
7,CN(CC=NNc1ncc(C(F)(F)F)cc1Cl)c1c(S(=O)(=O)C(F)(F)F)c(C#N)nn1-c1c(Cl)cc(C(F)(F)F)cc1Cl [Compound 2-1],at least 90%
8,CCOC(=O)CNN=CCN(C)c1c(S(=O)(=O)C(F)(F)F)c(C#N)nn1-c1c(Cl)cc(C(F)(F)F)cc1Cl [Compound 2-2],at least 90%
9,CN(CC=NNc1cccc([N+](=O)[O-])c1)c1c(S(=O)(=O)C(F)(F)F)c(C#N)nn1-c1c(Cl)cc(C(F)(F)F)cc1Cl [Compound 2-3],at least 90%
10,CN(CC=NNc1cccc(F)c1)c1c(S(=O)(=O)C(F)(F)F)c(C#N)nn1-c1c(Cl)cc(C(F)(F)F)cc1Cl [Compound 2-5],at least 90%
11,CN(CC=NNc1ccc(Cl)cc1)c1c(S(=O)(=O)C(F)(F)F)c(C#N)nn1-c1c(Cl)cc(C(F)(F)F)cc1Cl [Compound 2-6],at least 90%
12,CN(CC=NNc1ccc(Br)cc1)c1c(S(=O)(=O)C(F)(F)F)c(C#N)nn1-c1c(Cl)cc(C(F)(F)F)cc1Cl [Compound 2-9],at least 90%
13,CN(CC=NN1CCOCC1)c1c(S(=O)(=O)C(F)(F)F)c(C#N)nn1-c1c(Cl)cc(C(F)(F)F)cc1Cl [Compound 2-11],at least 90%
14,Cc1ccc(NN=CCN(C)c2c(S(=O)(=O)C(F)(F)F)c(C#N)nn2-c2c(Cl)cc(C(F)(F)F)cc2Cl)cc1 [Compound 2-12],at least 90%
15,CC(C)CNN=CCN(C)c1c(S(=O)(=O)C(F)(F)F)c(C#N)nn1-c1c(Cl)cc(C(F)(F)F)cc1Cl [Compound 2-13],at least 90%
16,CN(CC=NN1CCCCC1)c1c(S(=O)(=O)C(F)(F)F)c(C#N)nn1-c1c(Cl)cc(C(F)(F)F)cc1Cl [Compound 2-15],at least 90%
17,CN(CC=NNCC(F)(F)F)c1c(S(=O)(=O)C(F)(F)F)c(C#N)nn1-c1c(Cl)cc(C(F)(F)F)cc1Cl [Compound 2-16],at least 90%
18,CN(CC=NNc1cccc(C(F)(F)F)c1)c1c(S(=O)(=O)C(F)(F)F)c(C#N)nn1-c1c(Cl)cc(C(F)(F)F)cc1Cl [Compound 2-17],at least 90%
19,CN(CC=NNc1ccccc1F)c1c(S(=O)(=O)C(F)(F)F)c(C#N)nn1-c1c(Cl)cc(C(F)(F)F)cc1Cl [Compound 2-21],at least 90%
20,CN(CC=NNc1c(F)c(F)c(F)c(F)c1F)c1c(S(=O)(=O)C(F)(F)F)c(C#N)nn1-c1c(Cl)cc(C(F)(F)F)cc1Cl [Compound 2-22],at least 90%
21,CN(CCC=NNCC(F)(F)F)c1c(S(=O)(=O)C(F)(F)F)c(C#N)nn1-c1c(Cl)cc(C(F)(F)F)cc1Cl [Compound 2-85],at least 90%
22,CN(CC=NNC(=O)COc1ccc(F)cc1)c1c(S(=O)(=O)C(F)(F)F)c(C#N)nn1-c1c(Cl)cc(C(F)(F)F)cc1Cl [Compound 3-2],at least 90%
23,CN(CC=NNS(C)(=O)=O)c1c(S(=O)(=O)C(F)(F)F)c(C#N)nn1-c1c(Cl)cc(C(F)(F)F)cc1Cl [Compound 3-4],at least 90%
24,COc1ccc(C(=O)NN=CCN(C)c2c(S(=O)(=O)C(F)(F)F)c(C#N)nn2-c2c(Cl)cc(C(F)(F)F)cc2Cl)cc1 [Compound 3-5],at least 90%

row,SMILES,control of Ctenocephalides felis
1,CN(CC=NNC=O)c1c(S(=O)(=O)C(F)(F)F)c(C#N)nn1-c1c(Cl)cc(C(F)(F)F)cc1Cl [Compound 3-6],at least 90%
2,CCCC(=O)NN=CCN(C)c1c(S(=O)(=O)C(F)(F)F)c(C#N)nn1-c1c(Cl)cc(C(F)(F)F)cc1Cl [Compound 3-7],at least 90%
3,CN(N=CCN(C)c1c(S(=O)(=O)C(F)(F)F)c(C#N)nn1-c1c(Cl)cc(C(F)(F)F)cc1Cl)C(N)=S [Compound 3-8],at least 90%
4,CNC(=S)N(C)N=CCN(C)c1c(S(=O)(=O)C(F)(F)F)c(C#N)nn1-c1c(Cl)cc(C(F)(F)F)cc1Cl [Compound 3-9],at least 90%
5,CN(CC=NNC(=O)c1ccccc1Cl)c1c(S(=O)(=O)C(F)(F)F)c(C#N)nn1-c1c(Cl)cc(C(F)(F)F)cc1Cl [Compound 3-15],at least 90%
6,CN(CC=NNC(=O)c1ccc(C(C)(C)C)cc1)c1c(S(=O)(=O)C(F)(F)F)c(C#N)nn1-c1c(Cl)cc(C(F)(F)F)cc1Cl [Compound 3-17],at least 90%
7,CN(CC=NNC(=O)c1ccccc1)c1c(S(=O)(=O)C(F)(F)F)c(C#N)nn1-c1c(Cl)cc(C(F)(F)F)cc1Cl [Compound 3-19],at least 90%
8,COc1ccc(COC(=O)NN=CCN(C)c2c(S(=O)(=O)C(F)(F)F)c(C#N)nn2-c2c(Cl)cc(C(F)(F)F)cc2Cl)cc1 [Compound 3-20],at least 90%
9,CN(CC=NNC(=O)OCc1ccccc1)c1c(S(=O)(=O)C(F)(F)F)c(C#N)nn1-c1c(Cl)cc(C(F)(F)F)cc1Cl [Compound 3-21],at least 90%
10,CCCCC(=O)NN=CCN(C)c1c(S(=O)(=O)C(F)(F)F)c(C#N)nn1-c1c(Cl)cc(C(F)(F)F)cc1Cl [Compound 3-22],at least 90%
11,COCCC(=O)NN=CCN(C)c1c(S(=O)(=O)C(F)(F)F)c(C#N)nn1-c1c(Cl)cc(C(F)(F)F)cc1Cl [Compound 3-23],at least 90%
12,CN(CC=NNC(=O)c1cccs1)c1c(S(=O)(=O)C(F)(F)F)c(C#N)nn1-c1c(Cl)cc(C(F)(F)F)cc1Cl [Compound 3-25],at least 90%
13,CN(CC=NNC(=S)Nc1ccc(Cl)cc1)c1c(S(=O)(=O)C(F)(F)F)c(C#N)nn1-c1c(Cl)cc(C(F)(F)F)cc1Cl [Compound 3-29],at least 90%
14,CN(CC=NNC(=S)Nc1ccccc1)c1c(S(=O)(=O)C(F)(F)F)c(C#N)nn1-c1c(Cl)cc(C(F)(F)F)cc1Cl [Compound 3-30],at least 90%
15,CN(CC=NNC(N)=S)c1c(S(=O)(=O)C(F)(F)F)c(C#N)nn1-c1c(Cl)cc(C(F)(F)F)cc1Cl [Compound 3-31],at least 90%
16,CNC(=S)NN=CCN(C)c1c(S(=O)(=O)C(F)(F)F)c(C#N)nn1-c1c(Cl)cc(C(F)(F)F)cc1Cl [Compound 3-32],at least 90%
17,CN(CC=NNC(N)=O)c1c(S(=O)(=O)C(F)(F)F)c(C#N)nn1-c1c(Cl)cc(C(F)(F)F)cc1Cl [Compound 3-34],at least 90%
18,COC(=O)NN=CCN(C)c1c(S(=O)(=O)C(F)(F)F)c(C#N)nn1-c1c(Cl)cc(C(F)(F)F)cc1Cl [Compound 3-35],at least 90%
19,CCOC(=O)NN=CCN(C)c1c(S(=O)(=O)C(F)(F)F)c(C#N)nn1-c1c(Cl)cc(C(F)(F)F)cc1Cl [Compound 3-36],at least 90%
20,CC(=O)NN=CCN(C)c1c(S(=O)(=O)C(F)(F)F)c(C#N)nn1-c1c(Cl)cc(C(F)(F)F)cc1Cl [Compound 3-37],at least 90%
21,"CN(CC=NNC(=O)OC(C)(C)C)c1c(S(=O)(=O)C(F)(F)F)c(C#N)nn1-c1c(Cl)cc(C(F)(F)F)cc1Cl [Compound 3-38, 1-(2,6-Dichloro-4-trifluoromethylphenyl)-3-cyano-5-N-[2-(2-t-butoxycarbonylhydrazono)ethyl]-N-methylamino-4-trifluoromethylsulfonylpyrazole]",at least 90%
22,CCCCC(=O)NN=CCCN(C)c1c(S(=O)(=O)C(F)(F)F)c(C#N)nn1-c1c(Cl)cc(C(F)(F)F)cc1Cl [Compound 3-136],at least 90%
23,COC(=O)NN=CCCN(C)c1c(S(=O)(=O)C(F)(F)F)c(C#N)nn1-c1c(Cl)cc(C(F)(F)F)cc1Cl [Compound 3-149],at least 90%
